# Measured data: PubChem BioAssay AID1224826 (NIAID, 2016)
# Purpose: 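Knock-downs that raise or lower Tnf reporter signal after endotoxin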 (primary screen)
# System: RAW264.7 G9 macrophages from mouse bearing reporters for p65 (GFP) and the Tnf promoter (mCherry)
# Knock-down reagent: siRNA pool against mouse genes, 100 nM
# Time to read-out: 16 h of LPS stimulation, after 2 days of siRNA transfection
# Challenge: bacterial lipopolysaccharide (Salmonella minnesota R595), 10 ng/ml
# Detection: 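Imaged Tnf reporter mCherry in nuclei, minus background, normalised per plate to the median and expressed as robust z-scores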
# Reading the numbers: Tnf reporter robust z-score: higher = stronger Tnf promoter reporter signal after LPS; Tnf reporter intensity: higher = stronger Tnf promoter reporter signal
# Active means: 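Called active when robust z-score is at most -1.3, matching the median of the Tlr4 knock-down control, or over 3; control wells and wells with under 50 cells never active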
# Meaning of the calls: active = Tnf reporter clearly lowered or raised; inactive = no clear change in Tnf reporter
# The whole screen tested about 17,000 reagents; this is a part drawn at random. About 1,110 of all reagents (6.6%) count as active. 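Active means lowered or raised reporter signal; replicate intensities are raw and not normalised per plate.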
gene,Tnf reporter robust z-score,fewer than 50 cells in well,"Tnf reporter intensity, replicate 1","Tnf reporter intensity, replicate 2",outcome
Nap1l4 (GeneID 17955),0.04,enough cells in well,136,159,inactive
Cep295nl (GeneID 58251),-0.89,enough cells in well,69.9,103,inactive
Or10ak16 (GeneID 258331),0.42,enough cells in well,239,115,inactive
Gask1b (GeneID 68659),2.62,enough cells in well,437,161,inactive
Nsun3 (GeneID 106338),-0.48,enough cells in well,163,119,inactive
Dync1i2 (GeneID 13427),-0.89,enough cells in well,160,146,inactive
Bcl2a1b (GeneID 12045),-0.19,enough cells in well,122,171,inactive
Usp3 (GeneID 235441),-0.3,enough cells in well,183,235,inactive
Mrm1 (GeneID 217038),0.23,enough cells in well,168,183,inactive
Ces2a (GeneID 102022),-0.5,enough cells in well,179,126,inactive
Sycn (GeneID 68416),6.07,enough cells in well,370,274,active
Sod2 (GeneID 20656),0.51,enough cells in well,270,300,inactive
Dnajc27 (GeneID 217378),-0.87,enough cells in well,101,116,inactive
Fstl4 (GeneID 320027),-1.31,enough cells in well,92.3,94.7,active
Amigo2 (GeneID 105827),-0.35,enough cells in well,187,159,inactive
Kif15 (GeneID 209737),0.09,enough cells in well,225,171,inactive
Epm2a (GeneID 13853),-0.1,enough cells in well,221,223,inactive
Adgrg1 (GeneID 14766),-0.53,enough cells in well,171,251,inactive
Dnah11 (GeneID 13411),-0.33,enough cells in well,179,211,inactive
Cfc1 (GeneID 12627),0.16,enough cells in well,220,257,inactive
Efna4 (GeneID 13639),0.6,enough cells in well,269,284,inactive
Sox8 (GeneID 20681),0.98,enough cells in well,360,295,inactive
Chst10 (GeneID 98388),0.62,enough cells in well,203,207,inactive
Dlx3 (GeneID 13393),-0.72,enough cells in well,158,173,inactive
Wdr6 (GeneID 83669),-0.89,enough cells in well,199,146,inactive
Fasn (GeneID 14104),-1.2,enough cells in well,173,96.7,inactive
Cyb5r2 (GeneID 320635),0.97,enough cells in well,318,291,inactive
Nol7 (GeneID 70078),-0.75,enough cells in well,126,124,inactive
Tmub1 (GeneID 64295),,fewer than 50 cells per well; well left out of calls,98.9,17.4,inactive
Cgrrf1 (GeneID 68755),-0.97,enough cells in well,83.6,131,inactive
Dtx4 (GeneID 207521),0.89,enough cells in well,241,150,inactive
Cirbp (GeneID 12696),-0.54,enough cells in well,203,169,inactive
Cep43 (GeneID 75296),-0.33,enough cells in well,269,172,inactive
Uri1 (GeneID 19777),-0.05,enough cells in well,122,228,inactive
Mybpc1 (GeneID 109272),-0.62,enough cells in well,171,120,inactive
Rps6 (GeneID 20104),,fewer than 50 cells per well; well left out of calls,71,63.8,inactive
Dbndd1 (GeneID 72185),-0.21,enough cells in well,161,50.4,inactive
Cacna2d1 (GeneID 12293),-1.35,enough cells in well,71.6,98.8,active
Slc25a26 (GeneID 67582),1.01,enough cells in well,135,92.5,inactive
Ednrb (GeneID 13618),0.27,enough cells in well,217,353,inactive

3 entries from above, ordered by “Tnf reporter robust z-score”, descending:
gene,Tnf reporter robust z-score,fewer than 50 cells in well,"Tnf reporter intensity, replicate 1","Tnf reporter intensity, replicate 2",outcome
Slc25a26 (GeneID 67582),1.01,enough cells in well,135,92.5,inactive
Ednrb (GeneID 13618),0.27,enough cells in well,217,353,inactive
Cacna2d1 (GeneID 12293),-1.35,enough cells in well,71.6,98.8,active
